Patent US4863900A (priority 1987, dated 1989)
Entries after “also recorded” stand apart in the source; their conditions may differ. Not every detail of the peptide structures is certain; ends, links or a residue may be inferred. Where no end group is shown, it is not given here.

Legend:
[1] = system: HSV1; assay: Virus inactivation, surviving virus by plaque assay on VERO cells; settings: 100 μg/ml, 1 hour at 37° C.
[2] = system: HSV2; assay: as above; settings: 100 μg/ml, 1 hour at 37° C.

Compound | fraction of the HSV1 present inactivated ([1]; pH 5.0) | inactivation of HSV1 ([1]; pH 5) | inactivation of HSV1 ([1]; pH 6) | HSV1 inactivated ([1]; pH 7) | inactivation of HSV1 ([1]; pH 7) | inactivation of HSV1 ([1]; pH 8) | inactivation of HSV2 ([2]; pH 5) | inactivation of HSV2 ([2]; pH 6) | inactivation of HSV2 ([2]; pH 7) | inactivation of HSV2 ([2]; pH 8)
HHHHHHHHHHHHHHHHHHHHHHHH [His-24] | approximately 3/4 | somewhat effective | efficiently inactivated; also recorded: effective | approximately 10% | very little to no inactivation | no inactivation; also recorded: very little to no inactivation | somewhat effective | effective | very little to no inactivation | very little to no inactivation
N[C@@H](Cc1c[nH]cn1)C(=O)N[C@@H](Cc1c[nH]cn1)C(=O)N[C@@H](Cc1c[nH]cn1)C(=O)N[C@@H](Cc1c[nH]cn1)C(=O)N[C@@H](Cc1c[nH]cn1)C(=O)N[C@@H](Cc1c[nH]cn1)C(=O)N[C@@H](Cc1c[nH]cn1)C(=O)N[C@@H](Cc1c[nH]cn1)C(=O)N[C@@H](Cc1c[nH]cn1)C(=O)N[C@@H](Cc1c[nH]cn1)C(=O)N[C@@H](Cc1c[nH]cn1)C(=O)N[C@@H](Cc1c[nH]cn1)C(=O)N[C@@H](Cc1c[nH]cn1)C(=O)N[C@@H](Cc1c[nH]cn1)C(=O)N[C@@H](Cc1c[nH]cn1)C(=O)N[C@@H](Cc1c[nH]cn1)C(=O)N[C@@H](Cc1c[nH]cn1)C(=O)N[C@@H](Cc1c[nH]cn1)C(=O)O [His-18] | – | ineffective | ineffective | – | ineffective | ineffective | – | – | – | –
